{"sequences": {"note": "By UniProt entry, the sequences of proteins in these tests, tags left out. Residues count along the entry.", "UniProt Q9BXW4, residues 1-126": "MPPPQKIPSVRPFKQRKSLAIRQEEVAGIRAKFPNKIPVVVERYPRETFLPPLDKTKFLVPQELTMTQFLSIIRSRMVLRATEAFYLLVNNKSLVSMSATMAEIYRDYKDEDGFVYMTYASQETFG", "UniProt P60520": "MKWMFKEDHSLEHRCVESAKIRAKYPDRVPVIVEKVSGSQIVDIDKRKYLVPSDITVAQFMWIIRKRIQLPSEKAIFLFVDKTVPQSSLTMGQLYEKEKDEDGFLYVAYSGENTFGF", "UniProt Q6ZNE5": "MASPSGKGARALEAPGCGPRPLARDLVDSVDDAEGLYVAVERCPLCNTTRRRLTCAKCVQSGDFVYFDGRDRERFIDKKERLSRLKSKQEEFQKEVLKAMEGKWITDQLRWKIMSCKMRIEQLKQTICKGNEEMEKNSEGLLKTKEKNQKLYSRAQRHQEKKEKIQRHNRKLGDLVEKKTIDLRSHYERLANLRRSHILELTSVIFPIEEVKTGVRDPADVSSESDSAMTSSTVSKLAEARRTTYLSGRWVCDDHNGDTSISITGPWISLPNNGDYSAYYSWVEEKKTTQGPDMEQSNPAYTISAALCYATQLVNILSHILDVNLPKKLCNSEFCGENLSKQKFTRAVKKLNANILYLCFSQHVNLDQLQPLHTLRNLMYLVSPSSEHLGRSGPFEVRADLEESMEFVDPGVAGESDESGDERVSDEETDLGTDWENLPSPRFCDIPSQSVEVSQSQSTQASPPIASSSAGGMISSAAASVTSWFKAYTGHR"}, "source": "paper PMC6613885", "key": {"[1]": {"target": "GST-LC3C (UniProt Q9BXW4)", "assay": "pull-down; GST-Atg8 homologs on glutathione-Sepharose beads; 35S-labelled in vitro translated Myc-tagged proteins; 2 h at 4°C in NETN buffer (50 mM Tris pH 8.0, 100 mM NaCl, 1 mM EDTA, 0.5% Nonidet P-40); autoradiography; only the target purified"}, "[2]": {"target": "GST-GABARAPL2 (UniProt P60520)", "assay": "pull-down; GST-Atg8 homologs on glutathione-Sepharose beads; 35S-labelled in vitro translated Myc-tagged proteins; 2 h at 4°C in NETN buffer (50 mM Tris pH 8.0, 100 mM NaCl, 1 mM EDTA, 0.5% Nonidet P-40); autoradiography; only the target purified"}}, "note": "No constants are given. Whether binding was seen depends on the method and setting. In cells and extracts the contact can be indirect. Some binding calls cover weakened binding; strength is not graded here.", "data": [{"substance": "Myc-tagged ATG14, full-length, in vitro translated (from UniProt Q6ZNE5 1-492)", "values": [{"measurement": "binding", "setting": "[1]", "result": "binds"}, {"measurement": "binding", "setting": "[2]", "result": "binds"}]}]}
